The text below walks through data of doi:10.1101/2024.05.23.595491 (bioRxiv, 2024).

Results are given in words; binding and its absence hold for the method and conditions named. In cells and extracts the contact can be indirect. Here binding means that the protein was enriched with, or labelled near, the bait; the list need not be complete.

In the experiment the target is T1, TAP-tag-GFP-SH3BP2 (mouse) (UniProt Q06649).
T1 sequence: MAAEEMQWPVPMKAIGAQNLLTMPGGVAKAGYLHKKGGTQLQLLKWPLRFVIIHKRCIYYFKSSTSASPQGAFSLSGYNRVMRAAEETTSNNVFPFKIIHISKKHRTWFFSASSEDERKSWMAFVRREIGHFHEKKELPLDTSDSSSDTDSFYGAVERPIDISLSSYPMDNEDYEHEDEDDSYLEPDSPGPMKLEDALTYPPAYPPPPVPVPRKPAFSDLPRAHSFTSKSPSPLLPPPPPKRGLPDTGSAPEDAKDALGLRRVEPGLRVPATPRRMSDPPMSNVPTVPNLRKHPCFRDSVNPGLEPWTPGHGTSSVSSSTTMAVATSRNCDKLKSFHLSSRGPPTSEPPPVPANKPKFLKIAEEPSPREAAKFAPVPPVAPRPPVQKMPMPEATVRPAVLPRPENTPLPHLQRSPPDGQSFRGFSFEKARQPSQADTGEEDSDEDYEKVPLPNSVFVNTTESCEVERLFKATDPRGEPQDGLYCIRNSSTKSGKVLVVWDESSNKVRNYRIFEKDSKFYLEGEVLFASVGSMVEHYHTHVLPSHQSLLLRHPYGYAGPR
As to the kind of experiment: affinity purification with mass spectrometry.

On to “α subunit of AChR (endogenous, C2C12 myotubes) (from UniProt P04756 21-457)”, for which the binding entry is recorded as “binds”.

“γ subunit of AChR (endogenous, C2C12 myotubes) (from UniProt P04760 23-519)”: the binding entry is reported as “binds”.
